Measurements: PMC9888389
No constants are given. Whether binding was seen depends on the method and setting. In cells and extracts the contact can be indirect. Some results given as binding are weak or reduced against the parent protein; the word gives no strength. For part of these data: Where a sequence is shown, tags or fusion partners need not be part of it.

T1: FLAG-Trx1 C35S-HA expressed in a cardiac-specific manner in transgenic mice (trapping mice) (UniProt P10599)
T1 sequence: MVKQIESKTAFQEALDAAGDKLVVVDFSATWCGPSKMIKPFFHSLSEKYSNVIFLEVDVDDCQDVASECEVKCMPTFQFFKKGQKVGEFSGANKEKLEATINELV

T2: Trx1 trapping mutant (Trx1 C35S) coexpressed with the Atg7 mutants (Figure 3F) (human) (UniProt P10599)
T2 sequence: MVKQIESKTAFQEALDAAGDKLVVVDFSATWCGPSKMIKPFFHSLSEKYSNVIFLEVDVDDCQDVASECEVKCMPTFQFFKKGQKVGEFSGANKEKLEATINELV


Experiments:
[1] = target: T1, FLAG-Trx1 C35S-HA expressed in a cardiac-specific manner in transgenic mice (trapping mice); assay: co-IP; heart homogenates (sham or ischemic areas, ischemia 20 min) of Tg-Flag-Trx1 C35S and WT mice; anti-FLAG-agarose beads, immunoblot for Atg7; interaction strengthened by ischemia
[2] = target: T2, Trx1 trapping mutant (Trx1 C35S) coexpressed with the Atg7 mutants (Figure 3F) (human); assay: co-IP; HEK293 cells with the indicated plasmids for 48 h (legend; the text says cardiomyocytes); Atg7 WT or mutants coexpressed with the Trx1 trapping mutant

Binder	binding [1]	binding [2]
Atg7, endogenous in mouse heart (enzyme, UniProt Q9D906 1-698) MGDPGLAKLQFAPFNSALDVGFWHELTQKKLNEYRLDEAPKDIKGYYYNGDSAGLPTRLTLEFSAFDMSASTPAHCCPAMGTLHNTNTLEAFKTADKKLLLEQSANEIWEAIKSGAALENPMLLNKFLLLTFADLKKYHFYYWFCCPALCLPESIPLIRGPVSLDQRLSPKQIQALEHAYDDLCRAEGVTALPYFLFKYDDDTVLVSLLKHYSDFFQGQRTKITVGVYDPCNLAQYPGWPLRNFLVLAAHRWSGSFQSVEVLCFRDRTMQGARDVTHSIIFEVKLPEMAFSPDCPKAVGWEKNQKGGMGPRMVNLSGCMDPKRLAESSVDLNLKLMCWRLVPTLDLDKVVSVKCLLLGAGTLGCNVARTLMGWGVRHVTFVDNAKISYSNPVRQPLYEFEDCLGGGKPKALAAAERLQKIFPGVNARGFNMSIPMPGHPVNFSDVTMEQARRDVEQLEQLIDNHDVIFLLMDTRESRWLPTVIAASKRKLVINAALGFDTFVVMRHGLKKPKQQGAGDLCPSHLVAPADLGSSLFANIPGYKLGCYFCNDVVAPGDSTRDRTLDQQCTVSRPGLAVIAGALAVELMVSVLQHPEGGYAIASSSDDRMNEPPTSLGLVPHQIRGFLSRFDNVLPVSLAFDKCTACSPKVLDQYEREGFTFLAKVFNSSHSFLEDLTGLTLLHQETQAAEIWDMSDEETV	binds	
Atg7(C545S) (enzyme, UniProt Q9D906 1-698) MGDPGLAKLQFAPFNSALDVGFWHELTQKKLNEYRLDEAPKDIKGYYYNGDSAGLPTRLTLEFSAFDMSASTPAHCCPAMGTLHNTNTLEAFKTADKKLLLEQSANEIWEAIKSGAALENPMLLNKFLLLTFADLKKYHFYYWFCCPALCLPESIPLIRGPVSLDQRLSPKQIQALEHAYDDLCRAEGVTALPYFLFKYDDDTVLVSLLKHYSDFFQGQRTKITVGVYDPCNLAQYPGWPLRNFLVLAAHRWSGSFQSVEVLCFRDRTMQGARDVTHSIIFEVKLPEMAFSPDCPKAVGWEKNQKGGMGPRMVNLSGCMDPKRLAESSVDLNLKLMCWRLVPTLDLDKVVSVKCLLLGAGTLGCNVARTLMGWGVRHVTFVDNAKISYSNPVRQPLYEFEDCLGGGKPKALAAAERLQKIFPGVNARGFNMSIPMPGHPVNFSDVTMEQARRDVEQLEQLIDNHDVIFLLMDTRESRWLPTVIAASKRKLVINAALGFDTFVVMRHGLKKPKQQGAGDLCPSHLVAPADLGSSLFANIPGYKLGSYFCNDVVAPGDSTRDRTLDQQCTVSRPGLAVIAGALAVELMVSVLQHPEGGYAIASSSDDRMNEPPTSLGLVPHQIRGFLSRFDNVLPVSLAFDKCTACSPKVLDQYEREGFTFLAKVFNSSHSFLEDLTGLTLLHQETQAAEIWDMSDEETV		binds
Atg7(C548S) (enzyme, UniProt Q9D906 1-698) MGDPGLAKLQFAPFNSALDVGFWHELTQKKLNEYRLDEAPKDIKGYYYNGDSAGLPTRLTLEFSAFDMSASTPAHCCPAMGTLHNTNTLEAFKTADKKLLLEQSANEIWEAIKSGAALENPMLLNKFLLLTFADLKKYHFYYWFCCPALCLPESIPLIRGPVSLDQRLSPKQIQALEHAYDDLCRAEGVTALPYFLFKYDDDTVLVSLLKHYSDFFQGQRTKITVGVYDPCNLAQYPGWPLRNFLVLAAHRWSGSFQSVEVLCFRDRTMQGARDVTHSIIFEVKLPEMAFSPDCPKAVGWEKNQKGGMGPRMVNLSGCMDPKRLAESSVDLNLKLMCWRLVPTLDLDKVVSVKCLLLGAGTLGCNVARTLMGWGVRHVTFVDNAKISYSNPVRQPLYEFEDCLGGGKPKALAAAERLQKIFPGVNARGFNMSIPMPGHPVNFSDVTMEQARRDVEQLEQLIDNHDVIFLLMDTRESRWLPTVIAASKRKLVINAALGFDTFVVMRHGLKKPKQQGAGDLCPSHLVAPADLGSSLFANIPGYKLGCYFSNDVVAPGDSTRDRTLDQQCTVSRPGLAVIAGALAVELMVSVLQHPEGGYAIASSSDDRMNEPPTSLGLVPHQIRGFLSRFDNVLPVSLAFDKCTACSPKVLDQYEREGFTFLAKVFNSSHSFLEDLTGLTLLHQETQAAEIWDMSDEETV		binds
